Measurements reported in PubChem BioAssay AID504808 (Drosophila RNAi Screening Center, 2011)
Assay: 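Genes whose loss lifts activity of an E2F-responsive reporter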 (primary screen). System: Drosophila S2 cells. Reagent: long dsRNA against Drosophila genes. Read-out: 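Firefly luciferase driven by E2F sites, normalised to Renilla luciferase on the same minimal promoter, measured by plate reader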. Reading the numbers: E2F firefly: higher = more E2F reporter activity; Renilla normaliser: higher = more normaliser reporter signal. Active means: 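a knock-down counted as active when the firefly/Renilla E2F signal rose above 50%, a threshold chosen arbitrarily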.
In all, the deposit lists about 21,000 reagents; this is an unselected part of those that have a named target and a result. Of all reagents, 18 (0.084%) were called active. 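Raw counts without plate normalisation, one of two replicates; the ratio scores behind the calls were not deposited.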 Entries without a mark were called inactive. Reagents against one gene are numbered here. No sequences are given here. Not given: the amount of reagent, the time to read-out.

| gene | reagent no. | E2F firefly, rep 1 | Renilla normaliser, rep 1 |
| --- | --- | --- | --- |
| CG5112 | 1 | 1887 | 1404 |
| tant | 1 | 86827 | 3768 |
| fit | 1 | 1.26e5 | 6811 |
| scramb2 | 1 | 93898 | 3925 |
| Agpat1 | 1 | 1.34e5 | 6236 |
| Agpat1 | 2 | 1.39e5 | 6078 |
| CG18545 | 1 | 1.44e5 | 6428 |
| ro | 1 | 81868 | 4948 |
| CG13545 | 1 | 1.03e5 | 4398 |
| Nrk | 1 | 1.04e5 | 4025 |
| nonC | 1 | 6910 | 824 |
| nonC | 2 | 1.11e5 | 5399 |
| CG15035 | 1 | 1.11e5 | 5393 |
| CG11590 | 1 | 1.49e5 | 6209 |
| SdhB | 1 | 81241 | 3868 |
| CG13250 | 1 | 1.42e5 | 6397 |
| Adk2 | 1 | 82875 | 3663 |
| Or85c | 1 | 1.32e5 | 6322 |
| Osi18 | 1 | 1.14e5 | 5052 |
| dgt1 | 1 | 2123 | 912 |
| CG31221 | 1 | 1.46e5 | 7453 |
| CG31221 | 2 | 1.44e5 | 6780 |
| CG42715 (retired record) | 1 | 1.21e5 | 4183 |
| Alms1a | 1 | 1.01e5 | 5488 |
| Tektin-C | 1 | 61968 | 3900 |
| CG7368 | 1 | 1.11e5 | 5105 |
| CG17580 | 1 | 1.16e5 | 4675 |
| CG13299 | 1 | 97854 | 4086 |
| CG34129 | 1 | 98086 | 5310 |
| mRpL16 | 1 | 2185 | 1000 |
| prg | 1 | 1.42e5 | 4803 |
| Fst | 1 | 75383 | 3136 |
| CG8236 | 1 | 1.31e5 | 5998 |
| CG8578 | 1 | 7516 | 748 |

Looked up above.
CG31221 #1, Renilla normaliser, rep 1 = 7453
For “E2F firefly, rep 1”, Or85c reads 1.32e5
